Where “and” joins values, the source holds several entries; their conditions need not be identical. Equal entries are not always repeated. The campaign covered roughly 340,000 compounds. About 2,300 (0.68%) were called active. This list was built around the results that the source calls inconclusive (neither active nor inactive); the mix of calls is not that of the screen. Cut-off read from the data, not from the text of the source: active = growth rescue above about 28% (passing the limit was not always enough); inconclusive = no clear call, values can overlap the other calls.
Experiment: rescue of yeast from PfHsp40 toxicity, primary screen, S. cerevisiae, ATP luminescence (AID 504582);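 note: yeast W303a lacking pdr1 and pdr3 grown in galactose medium; growth measured after three days at 30 °C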
Conditions: S. cerevisiae expressing PfHsp40, growth rescue, at 12.5 µM, hits give high values

Row | Compound | growth rescue
1 | Cc1ccccc1NC(=O)COC(=O)/C=C/c1cccc(C(F)(F)F)c1 | inconclusive: 39.5%
2 | COc1cc(Cl)c(C)cc1NC(=O)CCCN1C(=O)CCC1=O | inconclusive: 41.1%
3 | Cc1ccc(CS(=O)Cc2ccc(C(=O)N3CCN(c4ccccc4)CC3)o2)cc1 (stereo not given) | inactive: -0.529%
4 | Cc1nc2ccccc2c(=O)n1NC(=O)c1c(O)c2c(n(CC(C)C)c1=O)CCCC2 | inconclusive: 44.3%
5 | COc1cccc2sc(Nc3nc(-c4ccccn4)cs3)nc12 | inconclusive: 60%
6 | COc1cc(N2C(=O)c3ccccc3C2=O)c(Cl)cc1C(=O)OCC(=O)N1CCOCC1 | inconclusive: 27.4%
7 | CCS(=O)(=O)CCSc1nc2ccccc2o1 | inconclusive: 29.9%
8 | O=C(Nn1c(C2CC2)nc2ccccc2c1=O)c1ccco1 | inactive: 0.096%
9 | CC(C)(C)C(=O)C(Oc1ccc(Cl)cc1)n1cncn1 (stereo not given) | active: 397%
10 | COc1ccc(N2CCN(c3c(S(=O)(=O)c4ccccc4)cnc4ccc(OC)cc34)CC2)cc1 | inconclusive: 71.6%
11 | CCn1nnnc1NCc1ccc(SC)cc1 | active: 38.6%
12 | CCOc1ccccc1C(=O)Oc1ccc2ccc(=O)oc2c1 | inconclusive: 67.2%
13 | COc1cc(CN2CCCCCC2)cc(OC)c1OC | inactive: -1.31%
14 | CC1CCN(c2ccc3c(c2)S(=O)(=O)c2ccccc2C3=O)CC1 | active: 199%
15 | CN[C@@H](C)C(=O)NC[C@H]1O[C@@H](n2cnc3c(N)ncnc32)[C@H](O)[C@@H]1O | inconclusive: 31.8%
16 | CC1CCN(S(=O)(=O)c2ccc(C(=O)NNC(=O)C3CC3)cc2)CC1 | active: 124%
17 | O=C(CSc1ccc(-c2ccccn2)nn1)N1CCc2ccccc21 | active: 224%
18 | Cc1ccc([C@H]2C(C(=O)O)=CC[C@@H](c3cccc(Cl)c3)N2S(=O)(=O)c2ccc(C)cc2)cc1 | active: 213%
19 | O=C(Cc1ccccc1)Nc1ccc(NC(=S)NC(=O)c2ccccc2)cc1 | inactive: -0.517%
20 | Cc1ccc(C)c(NC(=O)CNS(=O)(=O)c2ccccc2)c1 | inactive: 0.613%
21 | CC1(C)N=C(SCC(=O)Nc2ccc(Cl)cc2)C(c2ccc(Cl)cc2)=N1 | inconclusive: 75.1%
22 | CCOc1ccc(CCNC(=O)COC(=O)c2ccc3c(c2)OCCO3)cc1OCC | inconclusive: 36%
23 | COC(=O)c1cc2c(s1)=NC=NP=2(N1CCOCC1)N1CCOCC1 | inactive: -1.32% and inactive: -1.73%

Copied from the list:
For growth rescue, Cc1ccc(CS(=O)Cc2ccc(C(=O)N3CCN(c4ccccc4)CC3)o2)cc1 (stereo not given) is listed with inactive: -0.529%
For growth rescue, CCOc1ccccc1C(=O)Oc1ccc2ccc(=O)oc2c1 is listed with inconclusive: 67.2%

The list goes on:

Row | Compound | growth rescue
24 | CCOP(=O)(OCC)C(NC(=O)CN1C(=O)c2ccccc2S1(=O)=O)C(Cl)(Cl)Cl (stereo not given) | inactive: -0.362%
25 | O=C(CN1CCCC1)N/N=C/c1c(O)ccc2ccccc12 | active: 52.5%
26 | COc1ccc(/C=C/C(=O)NC2CCCCC2C)cc1 (stereo not given) | inconclusive: 47.5%
27 | Oc1ccccc1N=Nc1nc(-c2ccccc2)c(-c2ccccc2)[nH]1 | inconclusive: 218%
28 | COc1cccc(NC=C2C(=O)OC3(CCCCC3)OC2=O)c1 | active: 314%
29 | O=c1[nH]cc(F)c(=O)[nH]1 | inconclusive: 81.2%
30 | O=C1C2CC=CCC2C(=O)N1Cc1ccccc1 (stereo not given) | inconclusive: 25%
31 | CSc1cccc(NC(=O)/C=C/c2cccc(Cl)c2)c1 | active: 245%
32 | CCCCCCNc1c([N+](=O)[O-])c(=O)sc2ccccc12 | inconclusive: 25.1%
33 | Cc1ccc(C)c2sc(N3CCN(C(=O)c4ccc([N+](=O)[O-])o4)CC3)nc12 | inconclusive: 317%
34 | O=C(Nc1ncc([N+](=O)[O-])s1)C1COc2ccccc2O1 (stereo not given) | inconclusive: 119%
35 | O=C(/C=C/c1ccccc1)Nc1nc(-c2ccncc2)cs1 | inactive: -0.359%
36 | COc1cc(C(=O)O)c2c(c1C)OC(=O)c1c(C)cc(O)c(C=O)c1O2 | active: 86.4%
37 | CC(=O)N(Cc1ccc(Br)cc1)c1ccccc1C(=O)O | inconclusive: 29.9%
38 | CCOc1ccc2nc(NC(=S)N(C)C)sc2c1 | active: 122%
39 | Cc1ccc(C(=O)Cc2cc3ccccc3oc2=O)c(C)c1 | inconclusive: 44.8%
40 | CC(=O)N1CCc2cc(Br)cc(S(=O)(=O)N3CCc4ccccc43)c21 | inconclusive: 37%
41 | CSc1nc(Oc2ccc(F)cc2F)cc(C(F)(F)F)n1 | inactive: -0.687%
42 | CCN1C(=O)C(CC(=O)Nc2ccc(OC)cc2)N(Cc2cccnc2)C1=S (stereo not given) | inactive: -0.315%
43 | CC(C)(C)n1nnnc1CN(Cc1cccnc1)Cc1ccccc1Cl | inconclusive: 35.6%
44 | Cn1c2ccccc2c(=O)c2ccc(NCCc3cccs3)cc21 | inconclusive: 33.4%
45 | Cc1ccc(NC(=O)Cn2ccc([N+](=O)[O-])n2)cc1Cl | inconclusive: 32.8%
46 | O=C(O)C/C(=C\c1cc2c(cc1Br)OCO2)c1nc2ccccc2s1 | inconclusive: 267%

Row | Compound | growth rescue
47 | CC(C)C[C@H]1CN=C(Nc2ccccc2)N1CC1CCCCC1 | inconclusive: 34.9%
48 | COc1ccccc1-c1cn[nH]c1-c1ccc(OCc2ccccc2F)cc1O | inconclusive: 32.5%
49 | CC(C)N=c1scc(-c2cccs2)n1/N=C/c1ccc(O)c(O)c1O | inconclusive: 28.3%
50 | O=c1c(Cl)c(NCc2ccccc2Cl)cnn1C12CC3CC(CC(C3)C1)C2 | inconclusive: 28.8%
51 | CN1CCc2nc3sc(C(=O)C45CC6CC(CC(C6)C4)C5)c(N)c3cc2C1 | inconclusive: 62.6%
52 | COc1cc2c(cc1OC)C1=C(C#N)CCC(=O)N1CC2 | inconclusive: 57.2%
53 | CCC(C)(C)NC(=O)CN(Cc1cccs1)C(=O)C(=O)Nc1ccc2c(c1)OCCO2 | inactive: 0.311%
54 | Cc1nn(Cc2c(F)c(F)c(F)c(F)c2F)c(C)c1NC(=O)c1ccc(COc2ccccc2Cl)o1 | inconclusive: 67.2%
55 | Cc1cc(C(C)(C)CC(C)(C)C)ccc1OCCOCC[N+](C)(C)Cc1ccccc1 | inconclusive: 25.9%
56 | COC(=O)C1=C(C)NC(C)=C(C(=O)OC)C1c1ccccc1[N+](=O)[O-] | active: 37%
57 | COC(=O)c1ccc(Cl)c(-c2ccc(/C=N/NC(=O)Nc3ccccc3)o2)c1 | inactive: -0.495%
58 | O=C(N/N=C/c1cc(Br)c(O)c(Br)c1O)c1ccc2c(c1)OCCO2 | active: 152%
59 | CN(C(=O)CSC1=Nc2ccccc2C2=NC(c3ccccc3)C(=O)N12)C1CCCCC1 (stereo not given) | inconclusive: 34%
60 | CCN(CC)c1ccc(/C=N/NC(=O)c2ccco2)cc1 | inactive: -1.05%
61 | CCOC(=O)c1c(CSC(=N)N)n(C)c2cc(Br)c(OC(C)=O)cc12 | inactive: -1.62%
62 | CC(C(=O)N1CCc2ccccc21)N1CCN(Cc2ccccc2)CC1 (stereo not given) | inactive: -0.285%
63 | CCC[C@@H]1CCCO[C@@](C(=O)NCc2cc(C)n(C)n2)(C(F)(F)F)C1 | inconclusive: 28.8%
64 | CC(Oc1ccc2oc(-c3ccccc3)c(C(=O)O)c2c1)C(=O)O (stereo not given) | inactive: -0.517%
65 | O=C(N[C@@H](Cc1ccccc1)C(=O)CCl)OCc1ccccc1 | active: 320%
66 | O=S(=O)(c1ccc(Cl)cc1)N1CCN(Cc2ccc(O)c3ncccc23)CC1 | active: 102%
67 | COc1cccc(Cn2cnc3c(NS(=O)(=O)c4cc(Cl)ccc4Cl)c(C)c(C)cc32)c1 | inactive: 0.814%
68 | O=C1CCCN1CCC1CCN(C2CC(=O)N(c3ccc(F)cc3)C2=O)CC1 (stereo not given) | inconclusive: 52.2%
69 | Cc1occc1C(=O)N/N=C/c1c[nH]c2ccccc12 | inactive: -0.658%

Row | Compound | growth rescue
70 | C=CCOc1ccc(/C=N/NC(=O)c2c(C)nc3ccc(Cl)cn23)cc1 | inconclusive: 47.6%
71 | COc1ccc(-c2sc3ccccc3c2-c2ccc(O)cc2)cc1 | inconclusive: 235%
72 | c1ccc(C2CN3CCSC3=N2)cc1 (stereo not given) | inconclusive: 74.5%
73 | Cc1c(CC(=O)O)c(=O)oc2cc3c(cc12)CCC(C)(C)O3 | inactive: -0.687%
74 | CN(C)CCOc1ccc(-c2c(-c3ccccc3)sc3ccccc23)cc1 | active: 32.7%
75 | CSc1nc2ccc(NS(=O)(=O)c3cccc(Cl)c3Cl)cc2s1 | inconclusive: 75.8%
76 | CCN1/C(=C\C=C\C2=[N+](CC)c3ccccc3C2(C)C)C(C)(C)c2ccccc21 | active: 121%
77 | O=C(COC(=O)c1ccc([N+](=O)[O-])o1)Nc1ccc(Br)cc1F | inconclusive: 26.2%
78 | COc1cccc(C(=O)N2CCN(S(=O)(=O)Cc3ccccc3)CC2)c1 | inconclusive: 49.7%
79 | O=C(Cc1ccc(Cl)cc1)Nc1ccc(SC(F)F)cc1 | inconclusive: 105%
80 | C=C1C(=O)C23CCC4C(C)(C(=O)OC)CCCC4(C)C2CCC1(O)C3 (stereo not given) | active: 242%
81 | Cc1cccnc1Nc1nc(-c2ccccn2)cs1 | active: 76.7%
82 | COc1ccc(N2C(=O)NC(NS(=O)(=O)c3ccc(NC(C)=O)cc3)(C(F)(F)F)C2=O)cc1 (stereo not given) | inactive: 0.043%
83 | COc1ccccc1NC(=O)c1ccc(S(=O)(=O)N2CCCC(C)C2)cc1 (stereo not given) | inconclusive: 52.1%
84 | Cn1c(O)c(C=Nc2ccc(N3CCOCC3)cc2)c(=O)n(C)c1=S | active: 68%
85 | COc1ccc(-n2ccnc(SCC(=O)NCc3ccc(C)cc3)c2=O)cc1Cl | inconclusive: 33%
86 | CC(C)n1c(/C=C/[C@@H](O)C[C@@H](O)CC(=O)O)c(-c2ccc(F)cc2)c2ccccc21 | inconclusive: 54.3%
87 | Cc1c(C=O)c2ccccn2c1C(=O)c1ccc(F)cc1 | inconclusive: 27%
88 | CCOC(=O)N1CCC(NC(=O)c2cc(C)c3c(C)nn(-c4ccccc4)c3n2)CC1 | inactive: 0.101%
89 | O=C(Nc1nc(-c2ccccc2)cs1)c1ccc(Br)o1 | inconclusive: 104%
90 | Cc1cc(-c2c(C(=O)N3CCOCC3)c(C)nn2-c2ccccc2)no1 | inactive: -0.263%

By substructure: the compounds so far containing a furan ring, fused or not (10)
Row | Compound | growth rescue
3 | Cc1ccc(CS(=O)Cc2ccc(C(=O)N3CCN(c4ccccc4)CC3)o2)cc1 (stereo not given) | inactive: -0.529%
8 | O=C(Nn1c(C2CC2)nc2ccccc2c1=O)c1ccco1 | inactive: 0.096%
33 | Cc1ccc(C)c2sc(N3CCN(C(=O)c4ccc([N+](=O)[O-])o4)CC3)nc12 | inconclusive: 317%
54 | Cc1nn(Cc2c(F)c(F)c(F)c(F)c2F)c(C)c1NC(=O)c1ccc(COc2ccccc2Cl)o1 | inconclusive: 67.2%
57 | COC(=O)c1ccc(Cl)c(-c2ccc(/C=N/NC(=O)Nc3ccccc3)o2)c1 | inactive: -0.495%
60 | CCN(CC)c1ccc(/C=N/NC(=O)c2ccco2)cc1 | inactive: -1.05%
64 | CC(Oc1ccc2oc(-c3ccccc3)c(C(=O)O)c2c1)C(=O)O (stereo not given) | inactive: -0.517%
69 | Cc1occc1C(=O)N/N=C/c1c[nH]c2ccccc12 | inactive: -0.658%
77 | O=C(COC(=O)c1ccc([N+](=O)[O-])o1)Nc1ccc(Br)cc1F | inconclusive: 26.2%
89 | O=C(Nc1nc(-c2ccccc2)cs1)c1ccc(Br)o1 | inconclusive: 104%
